Measured data: PubChem BioAssay AID1053208 (Peter MacCallum Cancer Centre, 2014)

Screen: 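Synthetic lethal interactions between gene loss and doxorubicin in osteosarcoma cells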 (primary screen)
System: mouse osteosarcoma cells, early-passage culture from an engineered mouse model of fibroblastic bone tumour
Reagents: siRNA pool against mouse genes, 40 nM
Timing: about 120 h (48 h before drug, then 72 h with drug)
Challenge: doxorubicin 100 nM for 72 h, roughly 30-40% inhibitory dose
Read-out: 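Viability read as ATP luminescence after 72 h of 100 nM doxorubicin or none, duplicate wells averaged, scaled to non-targeting siRNA, then expressed as robust z-scores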
Scale: viability z-score with doxorubicin: higher = more viable cells under doxorubicin; viability z-score without drug: higher = more viable cells with knock-down alone; z-score of drug to no-drug ratio: higher = less drug sensitisation by knock-down
Rule for the call: 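Called active if knock-down leaves viability unchanged without drug (z within -2 to 2) but lowers it with doxorubicin (z at or under -2)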
The whole screen tested about 17,000 reagents; below is a part drawn at random. Over the whole deposit, 788 (4.7%) are marked active. 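Calls rest on z-score classes alone; an extra cut-off of viability at most 70% of control was not applied to them.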 The numbers tell different reagents against one gene apart. Some reagents were tested in more than one well and are listed for each. Further read-outs or replicates are left out here. Reagent sequences are not shown.

| target gene | reagent | combined z-score class | viability z-score with doxorubicin | viability z-score without drug | z-score of drug to no-drug ratio | Outcome |
| --- | --- | --- | --- | --- | --- | --- |
| Zfp598 (zinc finger protein 598) | 1 | high cell count with doxorubicin only | 2.25 | 1.52 | 1.35 | inactive |
| Plin1 (perilipin 1) | 1 | no change with or without drug | -1.12 | 0 | -1.12 | inactive |
| Mapk14 (mitogen-activated protein kinase 14) | 1 | no change with or without drug | -0.67 | -1.35 | 0.34 | inactive |
| Rps6ka4 (ribosomal protein S6 kinase A4) | 1 | no change with or without drug | 1.46 | 0.17 | 1.46 | inactive |
| Me1 (malic enzyme 1, NADP(+)-dependent, cytosolic) | 1 | no change with or without drug | 1.12 | 1.52 | 0.22 | inactive |
| Ythdf3 (YTH N6-methyladenosine RNA binding protein 3) | 1 | no change with or without drug | 1.12 | 0.84 | 0.67 | inactive |
| Actg1 (actin, gamma, cytoplasmic 1) | 1 | no change with or without drug | -0.79 | -1.85 | 0.67 | inactive |
| Or7g17 (olfactory receptor family 7 subfamily G member 17) | 1 | no change with or without drug | -0.9 | 0.34 | -1.01 | inactive |
| Galnt7 (polypeptide N-acetylgalactosaminyltransferase 7) | 1 | no change with or without drug | 1.01 | 0.51 | 0.79 | inactive |
| Chml (choroideremia-like) | 1 | no change with or without drug | -0.34 | 1.01 | -0.9 | inactive |
| Exd1 (exonuclease 3'-5' domain containing 1) | 1 | low cell count without drug only | -0.9 | -2.87 | 1.35 | inactive |
| Slc4a3 | 1 | no change with or without drug | 0.45 | 0.84 | 0 | inactive |
| Fbxo34 (F-box protein 34) | 1 | no change with or without drug | -0.22 | -0.51 | 0.22 | inactive |
| Rbpms (RNA binding protein gene with multiple splicing) | 1 | low cell count with doxorubicin only | -4.72 | -0.17 | -4.83 | active |
| Wsb2 (WD repeat and SOCS box-containing 2) | 1 | no change with or without drug | -0.9 | 0.51 | -1.12 | inactive |
| Kif21a (kinesin family member 21A) | 1 | no change with or without drug | -0.67 | -0.17 | -0.45 | inactive |
| Zfp12 (zinc finger protein 12) | 1 | no change with or without drug | 1.35 | 0.51 | 1.12 | inactive |
| Amz2 (archaelysin family metallopeptidase 2) | 1 | no change with or without drug | 0.11 | 0 | 0.22 | inactive |
| Tdg (thymine DNA glycosylase) | 1 | no change with or without drug | 0.9 | 0.34 | 0.79 | inactive |
| Map3k7 (mitogen-activated protein kinase kinase kinase 7) | 1 | no change with or without drug | -1.35 | -0.34 | -1.12 | inactive |
| Tmem176b (transmembrane protein 176B) | 1 | high cell count without drug only | -0.22 | 2.02 | -1.35 | inactive |
| Atp6v1e1 (ATPase, H+ transporting, lysosomal V1 subunit E1) | 1 | no change with or without drug | -0.34 | 1.52 | -1.12 | inactive |
| Pqbp1 (polyglutamine binding protein 1) | 1 | no change with or without drug | 0 | 0.84 | -0.45 | inactive |
| Mrtfa (myocardin related transcription factor A) | 1 | no change with or without drug | -1.35 | -1.18 | -0.56 | inactive |
| Qsox2 (quiescin Q6 sulfhydryl oxidase 2) | 1 | no change with or without drug | 0.45 | -0.17 | 0.67 | inactive |
| Igflr1 (IGF-like family receptor 1) | 1 | no change with or without drug | -0.22 | -0.84 | 0.45 | inactive |
| Grpr (gastrin releasing peptide receptor) | 1 | high cell count with doxorubicin only | 2.81 | 0.34 | 2.81 | inactive |
| Psmb6 (proteasome (prosome, macropain) subunit, beta type 6) | 1 | low cell count with and without drug | -2.7 | -2.19 | -1.46 | inactive |
| Ppfia4 | 1 | no change with or without drug | 0 | 1.01 | -0.56 | inactive |
| Tnfaip8l1 (tumor necrosis factor, alpha-induced protein 8-like 1) | 1 | no change with or without drug | 1.35 | 0.67 | 1.01 | inactive |
| Ctsz (cathepsin Z) | 1 | no change with or without drug | 1.12 | -0.51 | 1.69 | inactive |
| Csn2 (casein beta) | 1 | no change with or without drug | 0.56 | 0.84 | 0.11 | inactive |
| Wiz (widely-interspaced zinc finger motifs) | 1 | no change with or without drug | -1.35 | 0.51 | -1.57 | inactive |
| Ngef (neuronal guanine nucleotide exchange factor) | 1 | no change with or without drug | 0.22 | 0.17 | 0.22 | inactive |
| Cnot2 (CCR4-NOT transcription complex, subunit 2) | 1 | no change with or without drug | -0.45 | -1.52 | 0.79 | inactive |
| Nfyc (nuclear transcription factor-Y gamma) | 1 | no change with or without drug | 1.12 | -0.34 | 1.57 | inactive |
| Pdgfrb (platelet derived growth factor receptor, beta polypeptide) | 1 | no change with or without drug | 0.11 | -0.51 | 0.56 | inactive |
| Nif3l1 (Ngg1 interacting factor 3-like 1 (S. pombe)) | 1 | high cell count with doxorubicin only | 2.59 | 0.51 | 2.36 | inactive |
| Grk3 (G protein-coupled receptor kinase 3) | 1 | no change with or without drug | -0.67 | 0.51 | -0.9 | inactive |
| Grk3 (G protein-coupled receptor kinase 3) | 1 | no change with or without drug | 0.56 | -0.17 | 0.79 | inactive |
| Irs4 (insulin receptor substrate 4) | 1 | no change with or without drug | -0.22 | 0.67 | -0.56 | inactive |
| Cenpk (centromere protein K) | 1 | no change with or without drug | -1.91 | -0.51 | -1.57 | inactive |
| Rpgr (retinitis pigmentosa GTPase regulator) | 1 | no change with or without drug | -1.24 | 0 | -1.24 | inactive |
| Anxa13 (annexin A13) | 1 | no change with or without drug | -0.67 | 0.84 | -1.12 | inactive |
| Prag1 (PEAK1 related kinase activating pseudokinase 1) | 1 | no change with or without drug | -0.56 | -1.18 | 0.34 | inactive |
| Prl3d2 (prolactin family 3, subfamily d, member 2) | 1 | no change with or without drug | 0.22 | 1.85 | -0.79 | inactive |
| Rhobtb2 (Rho-related BTB domain containing 2) | 1 | no change with or without drug | -0.22 | -0.84 | 0.45 | inactive |
| Tjp3 (tight junction protein 3) | 1 | no change with or without drug | 0 | 0.51 | -0.22 | inactive |
| Fpr2 (formyl peptide receptor 2) | 1 | no change with or without drug | -0.22 | 0.84 | -0.67 | inactive |
| Or8b12c (olfactory receptor family 8 subfamily B member 12C) | 1 | no change with or without drug | 1.01 | 0 | 1.12 | inactive |
| Oas1d (2'-5' oligoadenylate synthetase 1D) | 1 | no change with or without drug | -1.35 | -1.69 | -0.22 | inactive |
| Fgf20 (fibroblast growth factor 20) | 1 | no change with or without drug | -1.35 | 0.17 | -1.46 | inactive |
| Siglecg (sialic acid binding Ig-like lectin G) | 1 | no change with or without drug | -0.79 | 0.34 | -0.9 | inactive |
| Cpped1 (calcineurin-like phosphoesterase domain containing 1) | 1 | no change with or without drug | -0.67 | -0.17 | -0.45 | inactive |
| Cdh23 (cadherin related 23 (otocadherin)) | 1 | no change with or without drug | 0.45 | 1.18 | -0.22 | inactive |
| Fbxl20 (F-box and leucine-rich repeat protein 20) | 1 | no change with or without drug | -0.22 | 0.67 | -0.56 | inactive |
| Fbxl20 (F-box and leucine-rich repeat protein 20) | 2 | no change with or without drug | 0 | -0.51 | 0.45 | inactive |
| Serpina7 | 1 | no change with or without drug | 0.67 | -0.51 | 1.24 | inactive |
| Chst15 (carbohydrate sulfotransferase 15) | 1 | no change with or without drug | 0.9 | -0.51 | 1.46 | inactive |
| Tmem17 (transmembrane protein 17) | 1 | no change with or without drug | 0.9 | 0 | 1.01 | inactive |
| Gc (vitamin D binding protein) | 1 | low cell count with doxorubicin only | -2.14 | -1.01 | -1.57 | active |
| Myh9 (myosin, heavy polypeptide 9, non-muscle) | 1 | no change with or without drug | 0.67 | -0.84 | 1.46 | inactive |
| Fgf3 (fibroblast growth factor 3) | 1 | no change with or without drug | -0.34 | 1.18 | -1.01 | inactive |

Reagents listed above marked active:
| target gene | reagent | combined z-score class | viability z-score with doxorubicin | viability z-score without drug | z-score of drug to no-drug ratio | Outcome |
| --- | --- | --- | --- | --- | --- | --- |
| Rbpms (RNA binding protein gene with multiple splicing) | 1 | low cell count with doxorubicin only | -4.72 | -0.17 | -4.83 | active |
| Gc (vitamin D binding protein) | 1 | low cell count with doxorubicin only | -2.14 | -1.01 | -1.57 | active |
